Publication PMC6508535
No constants are given. Whether binding was seen depends on the method and setting. In cells and extracts the contact can be indirect. A yes stands for co-enrichment or nearness to the bait. Other partners may have been found. For some of these results: A no says only that the protein was not detected with the bait. For some of these results: Where a sequence is shown, tags or fusion partners need not be part of it.

The chains behind the UniProt entries cited, without tags or fusion partners. Where a name states a change or a piece, a line headed by the entry shows the natural chain unless it says otherwise.
UniProt P14713: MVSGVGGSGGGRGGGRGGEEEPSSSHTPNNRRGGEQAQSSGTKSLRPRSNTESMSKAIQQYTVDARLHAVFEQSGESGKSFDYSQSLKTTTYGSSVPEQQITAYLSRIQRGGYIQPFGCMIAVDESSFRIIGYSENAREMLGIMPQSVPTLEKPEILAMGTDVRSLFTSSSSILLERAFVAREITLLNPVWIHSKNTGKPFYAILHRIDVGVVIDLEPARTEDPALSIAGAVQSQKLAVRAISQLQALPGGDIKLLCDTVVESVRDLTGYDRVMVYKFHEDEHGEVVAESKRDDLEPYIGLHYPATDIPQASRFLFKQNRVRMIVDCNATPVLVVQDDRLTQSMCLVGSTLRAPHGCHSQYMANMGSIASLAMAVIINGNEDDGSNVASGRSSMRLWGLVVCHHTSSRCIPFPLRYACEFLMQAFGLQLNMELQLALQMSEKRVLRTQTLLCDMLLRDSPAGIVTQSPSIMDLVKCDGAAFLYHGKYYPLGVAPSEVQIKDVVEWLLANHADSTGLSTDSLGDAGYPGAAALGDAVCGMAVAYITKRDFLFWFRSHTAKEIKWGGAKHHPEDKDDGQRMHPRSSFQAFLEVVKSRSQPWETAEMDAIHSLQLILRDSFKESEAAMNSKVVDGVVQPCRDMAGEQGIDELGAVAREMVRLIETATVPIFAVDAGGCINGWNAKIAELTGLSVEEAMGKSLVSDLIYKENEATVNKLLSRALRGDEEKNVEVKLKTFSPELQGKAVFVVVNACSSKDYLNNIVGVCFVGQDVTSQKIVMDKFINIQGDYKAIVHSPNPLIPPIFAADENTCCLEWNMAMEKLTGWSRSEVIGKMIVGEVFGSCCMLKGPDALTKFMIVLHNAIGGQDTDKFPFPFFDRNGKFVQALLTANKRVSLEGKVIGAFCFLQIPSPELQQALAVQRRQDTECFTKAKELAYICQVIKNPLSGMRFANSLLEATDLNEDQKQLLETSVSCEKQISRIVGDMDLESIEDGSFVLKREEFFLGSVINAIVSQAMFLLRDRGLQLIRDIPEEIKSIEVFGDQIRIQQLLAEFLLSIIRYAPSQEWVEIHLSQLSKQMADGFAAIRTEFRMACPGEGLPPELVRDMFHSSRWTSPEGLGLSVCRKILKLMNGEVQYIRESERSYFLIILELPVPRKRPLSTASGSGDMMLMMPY
UniProt Q94KE2: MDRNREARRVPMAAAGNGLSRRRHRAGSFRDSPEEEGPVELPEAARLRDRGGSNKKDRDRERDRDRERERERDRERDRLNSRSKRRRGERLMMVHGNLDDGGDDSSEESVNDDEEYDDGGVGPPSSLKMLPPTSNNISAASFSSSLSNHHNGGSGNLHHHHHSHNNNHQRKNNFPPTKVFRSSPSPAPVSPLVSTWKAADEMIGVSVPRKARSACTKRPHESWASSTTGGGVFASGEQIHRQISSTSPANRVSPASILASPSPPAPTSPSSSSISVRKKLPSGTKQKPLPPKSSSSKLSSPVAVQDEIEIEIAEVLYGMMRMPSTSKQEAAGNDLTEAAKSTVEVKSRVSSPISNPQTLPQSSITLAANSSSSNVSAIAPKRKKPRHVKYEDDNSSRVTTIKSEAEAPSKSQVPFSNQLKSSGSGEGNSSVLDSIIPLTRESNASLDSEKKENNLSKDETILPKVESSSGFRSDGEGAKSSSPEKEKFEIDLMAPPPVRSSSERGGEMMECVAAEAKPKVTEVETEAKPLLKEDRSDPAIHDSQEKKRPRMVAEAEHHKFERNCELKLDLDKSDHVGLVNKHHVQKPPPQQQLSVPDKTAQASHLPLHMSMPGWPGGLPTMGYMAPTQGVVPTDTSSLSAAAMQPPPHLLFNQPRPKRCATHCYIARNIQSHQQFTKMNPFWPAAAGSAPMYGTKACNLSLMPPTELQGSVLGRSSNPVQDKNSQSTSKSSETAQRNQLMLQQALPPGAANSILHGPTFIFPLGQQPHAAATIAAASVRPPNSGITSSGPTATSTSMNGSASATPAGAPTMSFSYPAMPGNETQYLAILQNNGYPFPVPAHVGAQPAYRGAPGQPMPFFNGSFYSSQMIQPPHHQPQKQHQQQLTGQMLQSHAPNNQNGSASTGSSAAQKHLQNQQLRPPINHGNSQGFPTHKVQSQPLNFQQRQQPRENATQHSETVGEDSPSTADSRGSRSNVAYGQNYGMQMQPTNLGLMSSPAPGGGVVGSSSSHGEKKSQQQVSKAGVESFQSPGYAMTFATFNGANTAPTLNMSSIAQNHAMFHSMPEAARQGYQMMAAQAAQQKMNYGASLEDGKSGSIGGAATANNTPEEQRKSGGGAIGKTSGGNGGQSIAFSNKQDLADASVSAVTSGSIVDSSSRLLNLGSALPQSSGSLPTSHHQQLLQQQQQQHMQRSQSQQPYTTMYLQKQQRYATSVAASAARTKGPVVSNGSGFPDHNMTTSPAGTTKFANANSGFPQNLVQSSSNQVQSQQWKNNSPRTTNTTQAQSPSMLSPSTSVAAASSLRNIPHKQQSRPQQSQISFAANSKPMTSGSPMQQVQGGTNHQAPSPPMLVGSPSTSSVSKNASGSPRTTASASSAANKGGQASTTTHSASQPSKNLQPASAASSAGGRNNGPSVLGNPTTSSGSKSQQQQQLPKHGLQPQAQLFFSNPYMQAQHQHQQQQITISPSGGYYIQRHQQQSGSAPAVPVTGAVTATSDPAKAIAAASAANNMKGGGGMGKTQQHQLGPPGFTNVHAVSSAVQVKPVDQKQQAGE
UniProt Q9SQR8: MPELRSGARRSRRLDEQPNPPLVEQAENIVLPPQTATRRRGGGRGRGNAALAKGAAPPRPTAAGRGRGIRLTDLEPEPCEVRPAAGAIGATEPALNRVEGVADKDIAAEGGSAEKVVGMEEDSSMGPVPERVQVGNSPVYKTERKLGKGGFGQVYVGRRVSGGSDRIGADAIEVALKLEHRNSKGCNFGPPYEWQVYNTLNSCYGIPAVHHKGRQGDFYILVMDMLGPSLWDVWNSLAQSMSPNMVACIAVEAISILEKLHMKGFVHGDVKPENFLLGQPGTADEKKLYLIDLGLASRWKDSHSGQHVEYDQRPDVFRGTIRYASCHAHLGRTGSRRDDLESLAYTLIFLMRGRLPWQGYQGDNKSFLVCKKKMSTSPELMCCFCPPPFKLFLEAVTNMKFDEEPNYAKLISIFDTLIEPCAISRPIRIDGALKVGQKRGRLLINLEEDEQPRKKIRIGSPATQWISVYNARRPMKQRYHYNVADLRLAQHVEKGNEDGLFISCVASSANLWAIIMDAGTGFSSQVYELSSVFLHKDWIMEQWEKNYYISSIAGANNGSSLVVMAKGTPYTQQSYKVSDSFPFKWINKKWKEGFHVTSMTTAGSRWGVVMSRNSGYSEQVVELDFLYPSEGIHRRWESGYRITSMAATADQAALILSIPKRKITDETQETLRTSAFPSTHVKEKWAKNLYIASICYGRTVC
UniProt Q9FIX7: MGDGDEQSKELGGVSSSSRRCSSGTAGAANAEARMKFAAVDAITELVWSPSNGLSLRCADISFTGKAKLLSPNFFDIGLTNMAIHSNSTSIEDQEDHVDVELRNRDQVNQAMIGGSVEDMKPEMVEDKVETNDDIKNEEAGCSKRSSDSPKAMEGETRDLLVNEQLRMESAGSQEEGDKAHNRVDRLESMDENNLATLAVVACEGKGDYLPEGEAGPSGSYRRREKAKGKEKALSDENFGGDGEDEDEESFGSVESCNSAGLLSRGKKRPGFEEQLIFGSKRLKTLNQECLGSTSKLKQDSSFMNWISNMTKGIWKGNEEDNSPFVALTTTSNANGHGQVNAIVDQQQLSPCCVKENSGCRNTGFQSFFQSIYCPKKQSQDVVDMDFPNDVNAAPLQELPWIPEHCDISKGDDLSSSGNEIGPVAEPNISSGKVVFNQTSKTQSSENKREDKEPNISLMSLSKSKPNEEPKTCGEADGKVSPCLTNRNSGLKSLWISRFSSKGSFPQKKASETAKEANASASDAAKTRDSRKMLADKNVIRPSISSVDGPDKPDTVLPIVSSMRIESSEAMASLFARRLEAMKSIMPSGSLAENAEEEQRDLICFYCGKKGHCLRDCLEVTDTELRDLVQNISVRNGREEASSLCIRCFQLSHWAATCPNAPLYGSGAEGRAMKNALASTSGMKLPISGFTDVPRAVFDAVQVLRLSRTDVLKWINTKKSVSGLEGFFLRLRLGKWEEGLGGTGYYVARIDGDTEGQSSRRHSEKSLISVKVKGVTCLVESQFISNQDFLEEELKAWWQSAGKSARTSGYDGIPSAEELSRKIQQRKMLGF
UniProt Q9LID3: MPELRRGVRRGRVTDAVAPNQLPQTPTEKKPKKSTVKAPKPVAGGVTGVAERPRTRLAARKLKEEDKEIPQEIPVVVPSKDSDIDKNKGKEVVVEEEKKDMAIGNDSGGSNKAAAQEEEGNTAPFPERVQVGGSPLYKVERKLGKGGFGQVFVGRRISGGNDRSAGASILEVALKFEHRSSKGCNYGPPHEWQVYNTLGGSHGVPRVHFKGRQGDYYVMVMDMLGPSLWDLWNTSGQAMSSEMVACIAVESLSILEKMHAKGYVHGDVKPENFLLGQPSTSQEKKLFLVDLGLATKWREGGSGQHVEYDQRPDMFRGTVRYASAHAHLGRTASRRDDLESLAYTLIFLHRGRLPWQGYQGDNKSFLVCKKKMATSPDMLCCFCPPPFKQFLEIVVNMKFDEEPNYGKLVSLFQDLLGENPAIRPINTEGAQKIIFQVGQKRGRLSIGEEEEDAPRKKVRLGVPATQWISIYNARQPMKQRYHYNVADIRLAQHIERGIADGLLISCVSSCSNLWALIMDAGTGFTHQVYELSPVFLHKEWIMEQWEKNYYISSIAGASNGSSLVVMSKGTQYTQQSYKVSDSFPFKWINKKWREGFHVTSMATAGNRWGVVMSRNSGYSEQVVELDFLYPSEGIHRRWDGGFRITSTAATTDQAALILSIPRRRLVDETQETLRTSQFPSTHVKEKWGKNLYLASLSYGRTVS
UniProt Q9FK52: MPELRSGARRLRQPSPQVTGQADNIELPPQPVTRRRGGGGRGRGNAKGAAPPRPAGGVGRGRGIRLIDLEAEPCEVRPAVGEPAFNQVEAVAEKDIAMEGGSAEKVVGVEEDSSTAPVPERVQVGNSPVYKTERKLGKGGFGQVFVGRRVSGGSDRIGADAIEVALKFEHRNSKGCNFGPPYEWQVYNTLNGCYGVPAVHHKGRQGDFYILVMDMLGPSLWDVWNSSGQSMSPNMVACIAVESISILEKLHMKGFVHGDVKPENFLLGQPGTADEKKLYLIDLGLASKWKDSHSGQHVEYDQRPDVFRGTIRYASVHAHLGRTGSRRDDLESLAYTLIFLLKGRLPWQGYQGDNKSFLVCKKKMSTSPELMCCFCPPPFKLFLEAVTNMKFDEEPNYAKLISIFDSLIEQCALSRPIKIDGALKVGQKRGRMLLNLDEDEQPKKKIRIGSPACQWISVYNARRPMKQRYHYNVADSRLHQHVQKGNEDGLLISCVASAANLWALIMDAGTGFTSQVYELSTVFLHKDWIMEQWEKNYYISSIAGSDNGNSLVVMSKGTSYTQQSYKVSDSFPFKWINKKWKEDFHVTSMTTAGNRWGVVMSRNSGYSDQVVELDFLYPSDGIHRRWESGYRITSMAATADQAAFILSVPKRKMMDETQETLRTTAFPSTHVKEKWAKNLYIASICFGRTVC

T1: AtELF3-HFC (Arabidopsis EARLY FLOWERING 3 with C-terminal His6-3xFlag tag) (Arabidopsis thaliana) (UniProt O82804)
T1 sequence: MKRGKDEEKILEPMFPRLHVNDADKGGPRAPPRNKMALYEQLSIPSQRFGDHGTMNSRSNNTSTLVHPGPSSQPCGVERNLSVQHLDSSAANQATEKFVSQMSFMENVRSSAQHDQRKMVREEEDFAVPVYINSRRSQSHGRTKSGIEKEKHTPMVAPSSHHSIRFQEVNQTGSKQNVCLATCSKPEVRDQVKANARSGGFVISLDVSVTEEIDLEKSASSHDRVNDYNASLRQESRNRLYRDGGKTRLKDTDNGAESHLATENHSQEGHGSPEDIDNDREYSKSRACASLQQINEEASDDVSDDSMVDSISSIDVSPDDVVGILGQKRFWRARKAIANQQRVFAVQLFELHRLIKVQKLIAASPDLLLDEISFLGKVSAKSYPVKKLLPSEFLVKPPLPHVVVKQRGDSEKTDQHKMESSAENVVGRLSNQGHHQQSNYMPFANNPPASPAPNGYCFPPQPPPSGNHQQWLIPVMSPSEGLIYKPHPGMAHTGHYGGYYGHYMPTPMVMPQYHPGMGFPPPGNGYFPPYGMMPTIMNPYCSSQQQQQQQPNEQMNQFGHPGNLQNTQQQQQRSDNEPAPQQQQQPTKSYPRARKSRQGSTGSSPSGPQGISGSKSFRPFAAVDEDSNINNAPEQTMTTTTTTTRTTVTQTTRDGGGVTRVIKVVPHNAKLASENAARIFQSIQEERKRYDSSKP

B1: phyC (protein, UniProt P14714 1-1111)
chain: MSSNTSRSCSTRSRQNSRVSSQVLVDAKLHGNFEESERLFDYSASINLNMPSSSCEIPSSAVSTYLQKIQRGMLIQPFGCLIVVDEKNLKVIAFSENTQEMLGLIPHTVPSMEQREALTIGTDVKSLFLSPGCSALEKAVDFGEISILNPITLHCRSSSKPFYAILHRIEEGLVIDLEPVSPDEVPVTAAGALRSYKLAAKSISRLQALPSGNMLLLCDALVKEVSELTGYDRVMVYKFHEDGHGEVIAECCREDMEPYLGLHYSATDIPQASRFLFMRNKVRMICDCSAVPVKVVQDKSLSQPISLSGSTLRAPHGCHAQYMSNMGSVASLVMSVTINGSDSDEMNRDLQTGRHLWGLVVCHHASPRFVPFPLRYACEFLTQVFGVQINKEAESAVLLKEKRILQTQSVLCDMLFRNAPIGIVTQSPNIMDLVKCDGAALYYRDNLWSLGVTPTETQIRDLIDWVLKSHGGNTGFTTESLMESGYPDASVLGESICGMAAVYISEKDFLFWFRSSTAKQIKWGGARHDPNDRDGKRMHPRSSFKAFMEIVRWKSVPWDDMEMDAINSLQLIIKGSLQEEHSKTVVDVPLVDNRVQKVDELCVIVNEMVRLIDTAAVPIFAVDASGVINGWNSKAAEVTGLAVEQAIGKPVSDLVEDDSVETVKNMLALALEGSEERGAEIRIRAFGPKRKSSPVELVVNTCCSRDMTNNVLGVCFIGQDVTGQKTLTENYSRVKGDYARIMWSPSTLIPPIFITNENGVCSEWNNAMQKLSGIKREEVVNKILLGEVFTTDDYGCCLKDHDTLTKLRIGFNAVISGQKNIEKLLFGFYHRDGSFIEALLSANKRTDIEGKVTGVLCFLQVPSPELQYALQVQQISEHAIACALNKLAYLRHEVKDPEKAISFLQDLLHSSGLSEDQKRLLRTSVLCREQLAKVISDSDIEGIEEGYVELDCSEFGLQESLEAVVKQVMELSIERKVQISCDYPQEVSSMRLYGDNLRLQQILSETLLSSIRFTPALRGLCVSFKVIARIEAIGKRMKRVELEFRIIHPAPGLPEDLVREMFQPLRKGTSREGLGLHITQKLVKLMERGTLRYLRESEMSAFVILTEFPLI
B2: phyE (protein, UniProt P42498 1-1112)
chain: MGFESSSSAASNMKPQPQKSNTAQYSVDAALFADFAQSIYTGKSFNYSKSVISPPNHVPDEHITAYLSNIQRGGLVQPFGCLIAVEEPSFRILGLSDNSSDFLGLLSLPSTSHSGEFDKVKGLIGIDARTLFTPSSGASLSKAASFTEISLLNPVLVHSRTTQKPFYAILHRIDAGIVMDLEPAKSGDPALTLAGAVQSQKLAVRAISRLQSLPGGDIGALCDTVVEDVQRLTGYDRVMVYQFHEDDHGEVVSEIRRSDLEPYLGLHYPATDIPQAARFLFKQNRVRMICDCNATPVKVVQSEELKRPLCLVNSTLRAPHGCHTQYMANMGSVASLALAIVVKGKDSSKLWGLVVGHHCSPRYVPFPLRYACEFLMQAFGLQLQMELQLASQLAEKKAMRTQTLLCDMLLRDTVSAIVTQSPGIMDLVKCDGAALYYKGKCWLVGVTPNESQVKDLVNWLVENHGDDSTGLTTDSLVDAGYPGAISLGDAVCGVAAAGFSSKDYLLWFRSNTASAIKWGGAKHHPKDKDDAGRMHPRSSFTAFLEVAKSRSLPWEISEIDAIHSLRLIMRESFTSSRPVLSGNGVARDANELTSFVCEMVRVIETATAPIFGVDSSGCINGWNKKTAEMTGLLASEAMGKSLADEIVQEESRAALESLLCKALQGEEEKSVMLKLRKFGQNNHPDYSSDVCVLVNSCTSRDYTENIIGVCFVGQDITSEKAITDRFIRLQGDYKTIVQSLNPLIPPIFASDENACCSEWNAAMEKLTGWSKHEVIGKMLPGEVFGVFCKVKCQDSLTKFLISLYQGIAGDNVPESSLVEFFNKEGKYIEASLTANKSTNIEGKVIRCFFFLQIINKESGLSCPELKESAQSLNELTYVRQEIKNPLNGIRFAHKLLESSEISASQRQFLETSDACEKQITTIIESTDLKSIEEGKLQLETEEFRLENILDTIISQVMIILRERNSQLRVEVAEEIKTLPLNGDRVKLQLILADLLRNIVNHAPFPNSWVGISISPGQELSRDNGRYIHLQFRMIHPGKGLPSEMLSDMFETRDGWVTPDGLGLKLSRKLLEQMNGRVSYVREDERCFFQVDLQVKTMLGVESRGTEGSSSIK
B3: SPA2 (protein, UniProt Q9T014 1-1036)
chain: MMDEGSVGDVSRIDEADVAHLQFKNSEQSFKPENIEVREVKEVQVQREAGSPDCSYGVIADFLDGKNGGDHVELIGNEPCSSRQNTNDEGDVVEELTVKTCEGSSMAIVGRPSSRARLEMNRSQFLHRFPLDGDLPGSSSMSKKVIDRGTVSILRNAGKMSLPETSNGQLAIIAVNGEANEHLTNVERNPVPVEALSHEGIKTKMLSQSGFSQFFVRKTLKGKGVTFRGPPNNRSKARNMDQQTVASSGSALVIANTSAKISSSIPLAAYDGLPCLPSNTSKPSSCANPSDTHRGCGGEGLSLREWLKSERQEVNKAECMYIFRQIVDHVDCSHSQGVVLCDLRPSSFKIFKENAVKYVVSGSQRESFDSNMNKETLSQLENPLVRRRLGDTSSLSIPAKKQKSSGPSSRQWPMFQRAGGVNIQTENNDGAIQEFHFRSSQPHCSTVACPFTSVSEQLEEKWYASPEELRGDMRSASSNIYSLGILLYELLSQFQCERAREAAMSDIRHRILPPKFLSENPKEAGFCLWLLHPESSCRPSTRDILQSEVVNGIPDLYAEGLSLSIEQEDTESELLQHFLFLSQEKRQKHAGNLMEEIASVEADIEEIVKRRCAIGPPSLEEASSSSPASSVPEMRLIRNINQLESAYFAARIDAHLPEARYRLRPDRDLLRNSDNTVAEVENSETWSSDDRVGAFFDGLCKYARYSKFETRGVLRTSELNNTSNVICSLGFDRDEDYFATAGVSKKIKIYEFNSLFNESVDIHYPAIEMPNRSKLSGVCWNNYIRNYLASSDYDGIVKLWDVTTGQAISHFIEHEKRAWSVDFSEACPTKLASGSDDCSVKLWNINERNCLGTIRNIANVCCVQFSPQSSHLLAFGSSDFRTYCYDLRNLRTPWCILSGHNKAVSYAKFLDNETLVTASTDNTLKLWDLKKTTHGGLSTNACSLTFGGHTNEKNFVGLSTSDGYIACGSETNEVYAYHRSLPMPITSYKFGSIDPISGKEIEEDNNLFVSSVCWRKRSNMVVSASSNGSIKVLQLV
B4: SPA1 (protein, UniProt Q9SYX2 1-1029)
chain: MPVMERVAEETVATNNIQLKARVDDVPCNKLDARHNDMVIQSETANSDCPGSSAHRNVDLTKPPPPEEAAGAKLSVEELTLGNYRIVQGSNNTNVDSPRAGKFEHLYRLARGSAFRAGDGDLDSQPRDMDQMLSRIRQQLAGAPSERQNLKPFMSRRSDQNLEAFSERLRAAGENSIMNAPALISEGVQMKTPVSSSNFSQLLLKRAMKGKGVVGKNQETPPEFVSDQDLGSKEKKLDISKSPTPHDVLPLKSSPKGNGMVSHGDGNHSKSSIGISLREFLRSSYAKREKRHGLCLFRQLVELVDSAHSKRLFLLDLRPSLFTLVPSKKLRYIGNFGKNDLESDVDEDLNRRRPVVEESSSGGRDSKKRKMDLHLNSPGNQLQATSTGRPFKRKSPVIDLNMVDARNPDSCELQQQDYIKNLSVSSVSRKQSMSTWLEEQWYTCPEEINGEDIGEKSNIYALGVLLFELLCHCESGEMHAAMMADLRHRILPPTFLSKYPKEAGFCLWLLHPEPSSRPSARDILKSELICEDDSVKSTAAAEEISELLLHFLSSLEVQKKKKASKLLQDIQTLEDDIKEAERRYSSNVSLVRSHGAIEKRVQSSPLDEHCTTSSALFVPTANTDRLMSNIRQLEDAYFFMRSQINLSSSAATARSDKTLKDRDRCSENQNENQDMSTKGKSSDQLEVFFEGLCKFARYSKFETCGTIRSGDLLNSASVVCSLSFDPDEEHIAAAGISKKIKIFDFNAFMNESVGVHYPLVEMVNKSKLSCVCWNSYIKNYLASTDYDGVVQIWDAGTGQGFSQYTEHQKRAWSVDFSPSDPTKFVSGSDDCSVKLWSINEKRSLGTIWSPANVCCVQFSSYSNHLLAFGSADYKVYCYDLRYVKTPWCTLAGHEKAVSYVKFMDSETIVSASTDNSLKLWNLNKTNSSGLSPGACSLTYKGHTNQKNFVGLSVLDGYIACGSETNEVYSYYKSLPMPMTSYKFGSVDPISGNEYFDDNGQFVSSVCWRKKSNMLVAANSTGNMKLLKLV
B5: ELF4-L4 (protein, UniProt Q570U6 1-114)
chain: MEGDVLSGFGDRHNMDGKLLQSFQKSFVDVQDILDQNRLLINEINQNHESKQPDNLGRNVGLIKELNNNIRRVASLYGDLSHSFARSVDASSEGESSGTLKSDGKANQKRFRSG

target: T1, AtELF3-HFC (Arabidopsis EARLY FLOWERING 3 with C-terminal His6-3xFlag tag) (Arabidopsis thaliana); experiment: affinity purification with mass spectrometry; tandem affinity purification by the FLAG and His epitopes of ELF3-HFC from extracts of 10-day-old transgenic Arabidopsis seedlings (elf3-2 background), 12L:12D, harvested at ZT12; two replicates for each line

Molecule | binding
phytochrome B (from UniProt P14713 1-1172) | binds
TIC (from UniProt Q94KE2 1-1550) | binds
MLK2 (from UniProt Q9SQR8) | binds
TZP (from UniProt Q9FIX7) | binds
MLK4 (from UniProt Q9LID3) | binds
MLK3 | binds
MUT9-LIKE KINASE1 (from UniProt Q9FK52) | binds
B1 | binds
B2 | binds
B3 | binds

target: SvELF3-HFC (Setaria viridis ELF3a with C-terminal His6-3xFlag tag) (Setaria viridis); experiment: as above

Molecule | binding
B1 | binds
B2 | binds
B4 | binds
B3 | no binding

target: BdELF3-HFC (Brachypodium distachyon ELF3 with C-terminal His6-3xFlag tag) (Brachypodium distachyon); experiment: as above

Molecule | binding
B1 | binds
B2 | binds
B4 | binds
B3 | no binding
B5 | binds
